PubChem BioAssay AID652248 – Drosophila RNAi Screening Center | 2013
In all, the deposit lists 863 reagents; below is a part drawn at random. 32 of all reagents (3.7%) were called active. 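Calls also used reproducibility and a similarity ranking whose scores are not deposited; many active genes show only modest elongated scores.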 A number with no mark means an inactive call. The numbers tell different reagents against one gene apart. A plus sign joins genes that one reagent is predicted to hit. Reagent sequences are not shown. Not stated in the record: the amount of reagent, the time to read-out.

Test: 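Kinases and phosphatases whose loss pushes fly blood cells toward elongated shapes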 (primary screen)
Cells: cultured Drosophila hemocytes
Reagents: long dsRNA against Drosophila genes
Measured: 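Automated microscopy of stained actin, tubulin and nuclei; single-cell shape measures assigned to five reference shape types, giving a score per dsRNA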
Scale: elongated score: higher = more elongated bipolar cells; normal round score: higher = more normal rounded cells; teardrop score: higher = more small teardrop-shaped cells
Active means: 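Hits show a significant increase of elongated cells; higher rank given where elongated cells rose as other shape types fell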

| gene | reagent | elongated score, rep 1 | elongated score, rep 2 | normal round score, rep 1 | teardrop score, rep 1 |
| --- | --- | --- | --- | --- | --- |
| Srpk79D | 1 | -0.24 | – | -1.43 | 0.82 |
| Srpk79D | 2 | -0.53 | – | -0.85 | 0.83 |
| Srpk79D | 3 | 3.97 | – | -2.54 | 0.5 |
| Akt | 1 | 0.73 | – | 0.76 | -0.72 |
| CG17746 | 1 | 0.51 | – | -0.03 | -0.23 |
| CG17746 | 2 | 0.45 | – | -0.66 | 0.12 |
| Pka-C3 | 1 | -0.39 | – | 0.82 | -0.89 |
| Pka-C3 | 2 | -0.53 | – | 0.96 | -0.8 |
| Pka-C3 | 3 | -0.38 | – | -1.49 | 1.26 |
| CG15528 | 1 | 0.35 | – | -0.03 | -0.4 |
| PIP5K59B | 1 | -0.53 | – | -0.82 | 1.74 |
| CaMKI | 1 | -0.53 | -0.53 | -0.62 | 0.61 |
| pkaap | 1 | -0.37 | – | -3.96 | 3.9 |
| dpp | 1 | -0.53 | – | 0.76 | -0.5 |
| dpp | 2 | -0.36 | – | -0.26 | 0.63 |
| dpp | 3 | 1.67 | – | -1.1 | 1.26 |
| dpp | 4 | 2.95 | – | -3.72 | 3.71 |
| Myt1 | 1 | -0.53 (active) | – | -0.59 | 1.42 |
| Myt1 | 2 | 4.4 (active) | – | -1.74 | -0.24 |
| for | 1 | -0.53 | – | 0.98 | -0.87 |
| for | 2 | -0.53 | – | 0.1 | 0.01 |
| for | 3 | -0.53 | – | 0.66 | -1 |
| CG12746 | 1 | -0.53 | – | 0.42 | -0.03 |
| Eph | 1 | 2.7 | – | 3.79 | 0.26 |
| Lar | 1 | -0.53 | – | 1.2 | -1.13 |
| Lar | 2 | -0.33 | – | -0.27 | -0.46 |
| Cks30A | 1 | 1.78 | – | -0.89 | -0.28 |
| Ack | 1 | -0.53 | – | 0.66 | -0.37 |
| Ack | 2 | -0.53 | – | -1.8 | 2.17 |
| rdgC | 1 | -0.43 | – | -2.49 | -0.13 |

Records above whose gene name starts with L or l:
| gene | reagent | elongated score, rep 1 | elongated score, rep 2 | normal round score, rep 1 | teardrop score, rep 1 |
| --- | --- | --- | --- | --- | --- |
| Lar | 1 | -0.53 | – | 1.2 | -1.13 |
| Lar | 2 | -0.33 | – | -0.27 | -0.46 |

More reagents:
| gene | reagent | elongated score, rep 1 | elongated score, rep 2 | normal round score, rep 1 | teardrop score, rep 1 |
| --- | --- | --- | --- | --- | --- |
| PpD3 | 1 | -0.41 | – | -0.21 | 0.23 |
| wun2 | 1 | 0.56 | – | -2 | 2.78 |
| kek1 | 1 | -0.53 | – | 0.34 | 0.02 |
| Pp1alpha-96A | 1 | -0.53 | – | -0.14 | -0.2 |
| Pp1alpha-96A | 2 | 0.68 | – | -3.41 | 4.01 |
| Pp1alpha-96A | 3 | -0.53 | – | -1.2 | 1.9 |
| flw | 1 | -0.53 | – | -1.88 | 2.45 |
| flw | 2 | -0.53 | – | -3.48 | 3.84 |
| flw | 3 | -0.53 | – | -1.05 | 2.07 |
| hpRNA:CR18854 + IP3K1 | 1 | 1.1 | 0.53 | -0.87 | 0.46 |
| hpRNA:CR18854 + IP3K1 | 2 | 0.63 | 2.1 | -4.79 | 6.34 |
| Gbs-76A | 1 | 0.06 | – | -1.28 | 2.02 |
| Ask1 | 1 | -0.53 | – | 0.42 | -0.94 |
| Ask1 | 2 | 0.44 | – | -1.24 | 1.8 |
| Ack-like | 1 | 0.61 | – | -0.49 | 0.12 |
| Dlish | 1 | 0.45 | – | -2.17 | 2.2 |
| CG6380 | 1 | 3.4 | – | -3.04 | 0.69 |
| Mbs | 1 | -0.53 | – | 0.82 | -1.03 |
| Mbs | 2 | 0.37 | – | 0.41 | -0.51 |
| Mbs | 3 | -0.53 | – | 0.46 | -0.36 |
| Mbs | 4 | -0.53 | – | 0.29 | 0.07 |
| Pak | 1 | -0.53 | – | -0.45 | 0.84 |
| Pak | 2 | -0.25 | – | 0.41 | -0.64 |
| Ak3 | 1 | 0 | – | -0.79 | 1.47 |
| Ak3 | 2 | -0.25 | – | -0.57 | 0.91 |
| I-t | 1 | -0.53 | – | -0.68 | 1.55 |
| CanB2 | 1 | -0.21 | – | 0.07 | 0.35 |
| CanB2 | 2 | 2.32 | – | -2.19 | 1.94 |
| Pi3K68D | 1 | -0.53 | – | 0.09 | 0.3 |
| Pi3K68D | 2 | 0.42 | – | -1.3 | 1.89 |
| Ppm1 | 1 | -0.53 | – | -0.9 | 1.38 |
| Ppm1 | 2 | 3.04 | – | -1.74 | 1.17 |
| ninaC | 1 | -0.53 | – | 0.31 | -0.6 |
| ninaC | 2 | 3.41 | – | -0.36 | -0.85 |
| btl | 1 | -0.53 | – | 0.33 | -0.19 |
| CycK | 1 | 0.41 | – | -1.38 | 1.98 |
| CG3277 | 1 | 0.03 | – | 0.19 | -0.07 |
| Alp6 | 1 | -0.53 | – | 0.09 | -0.51 |
